From paper PMC5043356

Sequences of proteins named here, by UniProt entry; tags and fusion partners are left off. A change or cut given only in a name is not applied to a line headed by its entry.
UniProt P0A7G6: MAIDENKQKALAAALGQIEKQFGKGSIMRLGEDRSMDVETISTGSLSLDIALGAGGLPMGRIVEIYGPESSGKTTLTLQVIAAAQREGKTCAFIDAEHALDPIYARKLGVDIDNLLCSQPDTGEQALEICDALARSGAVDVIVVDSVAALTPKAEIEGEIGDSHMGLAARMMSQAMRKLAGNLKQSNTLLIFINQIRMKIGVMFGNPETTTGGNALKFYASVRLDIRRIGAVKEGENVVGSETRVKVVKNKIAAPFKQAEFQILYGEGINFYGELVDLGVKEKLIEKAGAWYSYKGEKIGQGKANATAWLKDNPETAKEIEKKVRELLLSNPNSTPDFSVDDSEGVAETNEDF
UniProt P0AGE0: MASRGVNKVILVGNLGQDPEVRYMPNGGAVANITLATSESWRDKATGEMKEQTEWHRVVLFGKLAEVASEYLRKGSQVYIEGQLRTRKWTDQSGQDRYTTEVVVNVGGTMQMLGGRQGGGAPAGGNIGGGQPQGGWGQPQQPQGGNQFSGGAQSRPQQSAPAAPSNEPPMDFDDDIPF

Columns and labels:
[1] = molecular target: RecA (Escherichia coli BJ5183) (UniProt P0A7G6); assay: EMSA; conditions: 25 mM Tris pH 7.6, 1 mM MgCl2 (10 mM in supplementary assays), 1 mM DTT, 37 C, 10 min, 12 pmol X1 in 10 ul, 2% native agarose gel, recombinant protein, protein details: His tag (pET28a, Ni purification), single-stranded DNA
[2] = molecular target: SSB (Escherichia coli BJ5183) (UniProt P0AGE0); assay: EMSA; conditions: 10 mM Mg2+, 10-640 pmol SSB; 25 mM Tris pH 7.6, 1 mM MgCl2 (10 mM in supplementary assays), 1 mM DTT, 37 C, 10 min, 12 pmol X1 in 10 ul; 2% native agarose gel; recombinant protein; protein details: His tag (pET28a, Ni purification); single-stranded DNA

TACGTTAACAAAAAGTCAGATATGGACCTTGCTGCTAAAGGTCTAGGAGCTAAA [X1 (54 nt)]
binding result ([1]; ADP (RecA disassembles)): no binding | binding result ([1]; ATP (hydrolysed to ADP, RecA disassembles)): no binding | binding result [2]: binds

The exact form of at least one protein or probe is not confirmed. For part of these data: No signal at the amounts used counts as a negative. For part of these data: At least one verdict rests on a figure or table, not on a statement of the authors.
